Assay results: PubChem BioAssay AID188 (DTP/NCI, 2004)
Values are animals surviving of animals treated; these mice carried no tumour. Survivors were counted at the toxicity check, usually on the fifth day, unless a day is given; later deaths do not show. Schedules are NCI's codes, taken here to give the interval after Q, in days (D) or hours (H), and the number of doses after X. Brackets with × count equal records among those shown. Some doses were run more than once; their values stand side by side, smallest first.

Test system: CD2F1 mice, nontumored, toxicity/survival
Assay: NCI In Vivo Anticancer Drug Screen. Data for tumor model Nontumored Animals (Toxicity Test) in CD2F1 (CDF1) mice

CCCCCCCCCCCCCCCC(=O)OCC1OC(n2ccc(N)nc2=O)C(O)C1O (stereo not given)
survivor count (dose: 125.0 mg/kg/injection, schedule: Q01DX001 (ip), vehicle: saline with Tween-80): 10 of 10
survivor count (dose: 150.0 mg/kg/injection, schedule: Q01DX001 (ip), vehicle: saline with Tween-80): 10 of 10

CC(C)[C@]12O[C@H]1[C@@H]1O[C@]13[C@]1(O[C@H]1C[C@H]1C4=C(C(=O)OC4)[C@@H](O)C[C@@]13C)[C@@H]2O
survivor count (dose: 0.03 mg/kg/injection, schedule: Q01DX009 (ip), vehicle: saline + alcohol): 8 of 8
survivor count (dose: 0.06 mg/kg/injection, schedule: Q01DX009 (ip), vehicle: saline + alcohol): 8 of 8
survivor count (dose: 0.13 mg/kg/injection, schedule: Q01DX009 (ip), vehicle: saline + alcohol): 7 of 8 and 8 of 8
survivor count (dose: 0.25 mg/kg/injection, schedule: Q01DX009 (ip), vehicle: saline + alcohol): 7 of 8 and 8 of 8
survivor count (dose: 0.5 mg/kg/injection, schedule: Q01DX009 (ip), vehicle: saline + alcohol): 3 of 8 and 8 of 8
survivor count (dose: 1.0 mg/kg/injection, schedule: Q01DX009 (ip), vehicle: saline + alcohol): 0 of 8
survivor count (dose: 8.0 micrograms/kg/injection, schedule: Q03HX024 (ip), vehicle: saline): 8 of 8
survivor count (dose: 16.0 micrograms/kg/injection, schedule: Q03HX024 (ip), vehicle: saline): 8 of 8
survivor count (dose: 30.0 micrograms/kg/injection, schedule: Q01DX009 (ip), vehicle: saline): 8 of 8
survivor count (dose: 30.0 micrograms/kg/injection, schedule: Q01DX009 (sc), vehicle: saline): 8 of 8
survivor count (dose: 30.0 micrograms/kg/injection, schedule: Q03HX024 (ip), vehicle: saline): 8 of 8
survivor count (dose: 60.0 micrograms/kg/injection, schedule: Q01DX009 (ip), vehicle: saline): 8 of 8
survivor count (dose: 60.0 micrograms/kg/injection, schedule: Q01DX009 (sc), vehicle: saline): 8 of 8
survivor count (dose: 60.0 micrograms/kg/injection, schedule: Q03HX024 (ip), vehicle: saline): 8 of 8
survivor count (dose: 130.0 micrograms/kg/injection, schedule: Q01DX009 (ip), vehicle: saline): 8 of 8
survivor count (dose: 130.0 micrograms/kg/injection, schedule: Q01DX009 (sc), vehicle: saline): 8 of 8
survivor count (dose: 130.0 micrograms/kg/injection, schedule: Q03HX024 (ip), vehicle: saline): 5 of 8
survivor count (dose: 250.0 micrograms/kg/injection, schedule: Q01DX009 (ip), vehicle: saline): 8 of 8
survivor count (dose: 250.0 micrograms/kg/injection, schedule: Q01DX009 (sc), vehicle: saline): 8 of 8
survivor count (dose: 500.0 micrograms/kg/injection, schedule: Q01DX009 (ip), vehicle: saline): 7 of 8
survivor count (dose: 500.0 micrograms/kg/injection, schedule: Q01DX009 (sc), vehicle: saline): 8 of 8

CN1CCc2cc(O)cc3c2C1Cc1ccc(O)c(O)c1-3 (stereo not given)
survivor count (dose: 1.0 mg/kg/injection, schedule: Q01DX001 (ip), vehicle: DMSO): 2 of 2
survivor count (dose: 10.0 mg/kg/injection, schedule: Q01DX001 (ip), vehicle: DMSO): 2 of 2
survivor count (dose: 100.0 mg/kg/injection, schedule: Q01DX001 (ip), vehicle: DMSO): 2 of 2

O=P1(N(CCCl)CCCl)NCCCO1 (stereo not given)
survivor count (dose: 3.9 mg/kg/injection, schedule: Q03HX032 (ip), vehicle: saline): 10 of 10
survivor count (dose: 5.8 mg/kg/injection, schedule: Q03HX032 (ip), vehicle: saline): 10 of 10
survivor count (dose: 8.6 mg/kg/injection, schedule: Q03HX032 (ip), vehicle: saline): 9 of 9
survivor count (dose: 12.0 mg/kg/injection, schedule: Q01DX015 (ip), vehicle: saline): 10 of 10
survivor count (dose: 13.0 mg/kg/injection, schedule: Q03HX032 (ip), vehicle: saline): 10 of 10
survivor count (dose: 16.2 mg/kg/injection, schedule: Q10HX004 (ip), vehicle: saline): 5 of 5
survivor count (dose: 18.0 mg/kg/injection, schedule: Q01DX015 (ip), vehicle: saline): 10 of 10
survivor count (dose: 20.0 mg/kg/injection, schedule: Q03HX032 (ip), vehicle: saline): 10 of 10
survivor count (dose: 22.0 mg/kg/injection, schedule: Q02DX008 (ip), vehicle: saline): 10 of 10
survivor count (dose: 26.0 mg/kg/injection, schedule: Q08DX002 (ip), vehicle: saline): 5 of 5
survivor count (dose: 27.0 mg/kg/injection, schedule: Q01DX015 (ip), vehicle: saline): 10 of 10
survivor count (dose: 27.0 mg/kg/injection, schedule: Q10HX004 (ip), vehicle: saline): 5 of 5
survivor count (dose: 30.0 mg/kg/injection, schedule: Q03HX032 (ip), vehicle: saline): 10 of 10
survivor count (dose: 33.0 mg/kg/injection, schedule: Q02DX008 (ip), vehicle: saline): 10 of 10
survivor count (dose: 36.0 mg/kg/injection, schedule: Q04DX004 (ip), vehicle: saline): 9 of 9
survivor count (dose: 40.0 mg/kg/injection, schedule: Q01DX015 (ip), vehicle: saline): 10 of 10
survivor count (dose: 43.0 mg/kg/injection, schedule: Q08DX002 (ip), vehicle: saline): 5 of 5
survivor count (dose: 44.0 mg/kg/injection, schedule: Q02DX008 (ip), vehicle: saline): 10 of 10
survivor count (dose: 45.0 mg/kg/injection, schedule: Q10HX004 (ip), vehicle: saline): 5 of 5
survivor count (dose: 54.0 mg/kg/injection, schedule: Q04DX004 (ip), vehicle: saline): 10 of 10
survivor count (dose: 60.0 mg/kg/injection, schedule: Q01DX015 (ip), vehicle: saline): 9 of 9
survivor count (dose: 67.0 mg/kg/injection, schedule: Q02DX008 (ip), vehicle: saline): 10 of 10
survivor count (dose: 72.0 mg/kg/injection, schedule: Q08DX002 (ip), vehicle: saline): 5 of 5
survivor count (dose: 80.0 mg/kg/injection, schedule: Q04DX004 (ip), vehicle: saline): 10 of 10
survivor count (dose: 90.0 mg/kg/injection, schedule: Q01DX015 (ip), vehicle: saline): 10 of 10
survivor count (dose: 100.0 mg/kg/injection, schedule: Q02DX008 (ip), vehicle: saline): 10 of 10
survivor count (dose: 120.0 mg/kg/injection, schedule: Q04DX004 (ip), vehicle: saline): 10 of 10
survivor count (dose: 120.0 mg/kg/injection, schedule: Q08DX002 (ip), vehicle: saline): 5 of 5
survivor count (dose: 133.0 mg/kg/injection, schedule: Q01DX001 (ip), vehicle: saline): 10 of 10 (2×)
survivor count (dose: 135.0 mg/kg/injection, schedule: Q01DX015 (ip), vehicle: saline): 10 of 10
survivor count (dose: 150.0 mg/kg/injection, schedule: Q01DX001 (ip), vehicle: saline): 10 of 10
survivor count (dose: 180.0 mg/kg/injection, schedule: Q01DX001 (ip), vehicle: saline): 4 of 4
survivor count (dose: 180.0 mg/kg/injection, schedule: Q04DX004 (ip), vehicle: saline): 10 of 10
survivor count (dose: 200.0 mg/kg/injection, schedule: Q01DX001 (ip), vehicle: saline): 10 of 10 (2×) and 4 of 4
survivor count (dose: 200.0 mg/kg/injection, schedule: Q08DX002 (ip), vehicle: saline): 5 of 5
survivor count (dose: 250.0 mg/kg/injection, schedule: Q01DX001 (ip), vehicle: saline): 10 of 10
survivor count (dose: 270.0 mg/kg/injection, schedule: Q04DX004 (ip), vehicle: saline): 10 of 10
survivor count (dose: 300.0 mg/kg/injection, schedule: Q01DX001 (ip), vehicle: saline): 10 of 10 (2×) and 4 of 4
survivor count (dose: 333.0 mg/kg/injection, schedule: Q08DX002 (ip), vehicle: saline): 5 of 5
survivor count (dose: 350.0 mg/kg/injection, schedule: Q01DX001 (ip), vehicle: saline): 10 of 10
survivor count (dose: 400.0 mg/kg/injection, schedule: Q01DX001 (ip), vehicle: saline): 9 of 10 and 4 of 4
survivor count (dose: 450.0 mg/kg/injection, schedule: Q01DX001 (ip), vehicle: saline): 7 of 10
survivor count (dose: 500.0 mg/kg/injection, schedule: Q01DX001 (ip), vehicle: saline): 4 of 4

COC1=CC=C2[C@@H]3Cc4ccc(OC)c5c4[C@]2(CCN3CCO)C1O5 (stereo not given in full)
survivor count (dose: 1.0 mg/kg/injection, schedule: Q01DX001 (ip), vehicle: other): 2 of 2
survivor count (dose: 10.0 mg/kg/injection, schedule: Q01DX001 (ip), vehicle: other): 2 of 2
survivor count (dose: 100.0 mg/kg/injection, schedule: Q01DX001 (ip), vehicle: other): 2 of 2

Nc1nccc(NCC(O)c2ccccc2)n1 (stereo not given)
survivor count (dose: 1.0 mg/kg/injection, schedule: Q01DX001 (ip), vehicle: water): 2 of 2
survivor count (dose: 10.0 mg/kg/injection, schedule: Q01DX001 (ip), vehicle: water): 2 of 2
survivor count (dose: 100.0 mg/kg/injection, schedule: Q01DX001 (ip), vehicle: water): 2 of 2

CCCCC(=O)OCC(=O)[C@]1(O)Cc2c(O)c3c(c(O)c2[C@@H](OC2CC(NC(=O)C(F)(F)F)C(O)C(C)O2)C1)C(=O)c1c(OC)cccc1C3=O (stereo not given in full)
survivor count (dose: 13.0 mg/kg/injection, schedule: Q04DX003 (ip), vehicle: clinical formulation): 5 of 5
survivor count (dose: 13.0 mg/kg/injection, schedule: Q10HX004 (ip), vehicle: other): 5 of 5
survivor count (dose: 21.6 mg/kg/injection, schedule: Q04DX003 (ip), vehicle: clinical formulation): 5 of 5
survivor count (dose: 21.6 mg/kg/injection, schedule: Q10HX004 (ip), vehicle: other): 5 of 5
survivor count (dose: 36.0 mg/kg/injection, schedule: Q04DX003 (ip), vehicle: clinical formulation): 5 of 5
survivor count (dose: 36.0 mg/kg/injection, schedule: Q10HX004 (ip), vehicle: other): 5 of 5
survivor count (dose: 60.0 mg/kg/injection, schedule: Q04DX003 (ip), vehicle: clinical formulation): 5 of 5
survivor count (dose: 60.0 mg/kg/injection, schedule: Q10HX004 (ip), vehicle: other): 5 of 5
survivor count (dose: 100.0 mg/kg/injection, schedule: Q04DX003 (ip), vehicle: clinical formulation): 5 of 5
survivor count (dose: 100.0 mg/kg/injection, schedule: Q10HX004 (ip), vehicle: other): 5 of 5
